PubChem BioAssay AID504793 | Drosophila RNAi Screening Center, 2011
The deposit covers about 23,000 reagents; this is a random part of those with a known target gene and a result. Over the whole deposit, 62 (0.27%) got an active call. 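Calls come from follow-up tests whose scores are not deposited, so confirmed genes may have low counts here; counts are not normalised per plate.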 The raw values are shown without normalisation. Names joined by + are all predicted targets of the reagent.

Test: 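Knock-downs allowing continued mitosis even though DNA is damaged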 (primary screen)
System: Drosophila S2R+ cells
Reagent: long dsRNA against Drosophila genes, about 0.25 µg dsRNA per well
Timing: 4 days of dsRNA, then 4 hours of drug before read-out
Challenge: doxorubicin 0.5 µM for 4 hours to cause double-strand breaks, in cells also given a low, harmless dose of dsRNA against nbs to sensitise the assay
Read-out: 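Per-well count of mitotic cells stained for phospho-histone H3 after doxorubicin exposure, used as mitotic index; counts are raw and not normalised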
Direction: mitotic cells: higher = more cells in mitosis, weaker G2 arrest
Rule for the call: 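Genes are called active only when high mitotic counts were reproduced with independent dsRNAs and mitosis was checked for delay without damage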
Calls: active = confirmed in follow-up tests; inactive = not confirmed

no.	Target gene	amplicon	mitotic cells, replicate 1	Outcome
1	CG3457	DRSC18509	11	inactive
2	CG3457	DRSC26458	4	inactive
3	CG9106	DRSC20154	5	inactive
4	CG9106	DRSC24212	7	inactive
5	CG3760	DRSC04415	10	inactive
6	CG15472	DRSC18055	10	inactive
7	CR30029	DRSC06724	9	inactive
8	lncRNA:CR30055	DRSC22439	13	inactive
9	lncRNA:CR30055	DRSC26506	13	inactive
10	CG7460	DRSC10850	2	inactive
11	CG7460	DRSC27927	6	inactive
12	CG14292	DRSC14772	14	inactive
13	Gyf	DRSC17202	9	inactive
14	Gyf	DRSC28907	4	inactive
15	CG17803	DRSC15275	12	inactive
16	CG17803	DRSC22811	11	inactive
17	otu	DRSC18811	18	inactive
18	otu	DRSC27953	6	inactive
19	CG2211	DRSC08559	6	inactive
20	asRNA:Eig63F-2	DRSC27877	5	inactive
21	Vha55	DRSC16896	9	inactive
22	Vha55	DRSC26184	12	inactive
23	Cortactin	DRSC16612	5	inactive
24	Cortactin	DRSC28012	7	inactive
25	Golgin84	DRSC15269	1	inactive
26	ppk12	DRSC04086	3	inactive
27	CG32091	DRSC10820	10	inactive
28	TP53INP	DRSC08178	9	inactive
29	TP53INP	DRSC22552	12	inactive
30	TP53INP	DRSC25638	3	inactive
31	Pp2A-29B	DRSC03400	6	inactive
32	Pp2A-29B	DRSC28394	102	inactive
33	CG18171	DRSC08524	11	inactive
34	CG18171	DRSC26270	1	inactive
35	Ada2b	DRSC16531	4	inactive
36	nAChRalpha6	DRSC01096	3	inactive
37	nAChRalpha6	DRSC02738	8	inactive
38	Btk	DRSC02008	16	inactive
39	Btk	DRSC02666		inactive
40	Btk	DRSC22427	7	inactive
41	CG13482	DRSC10024	5	inactive
42	CG13482	DRSC23975	1	inactive
43	Polr3G	DRSC21511	9	inactive
44	CG12682	DRSC17873	13	inactive
45	CG7409	DRSC10842	4	inactive
46	CG7409	DRSC30043	10	inactive
47	IRSp53	DRSC10891	6	inactive
48	CG17141	DRSC15178	10	inactive
49	CG8306	DRSC07141	4	inactive
50	CG8306	DRSC24656	7	inactive
51	CG18371	DRSC06733	11	inactive
52	Obp50a	DRSC22152	10	inactive
53	Obp50a	DRSC28404	5	inactive
54	Lamtor1	DRSC10183	2	inactive
55	Uba3	DRSC06377	2	inactive
56	CG12438	DRSC02167	2	inactive
57	Abp1	DRSC09693	4	inactive
58	Ccm3	DRSC15711	7	inactive
59	cta	DRSC03769	9	inactive
60	CG11425	DRSC11657	5	inactive
61	CG11425	DRSC28400	4	inactive
62	Gel	DRSC12350		inactive
63	Gel	DRSC24569	6	inactive
64	CG15404	DRSC00418	2	inactive
65	CG3309	DRSC18301	5	inactive
66	CG3309	DRSC26197	10	inactive
67	Usp39	DRSC20032	6	inactive
68	Usp39	DRSC29836	2	inactive
69	CG9018	DRSC08618	5	inactive
70	CG33178	DRSC19950	9	inactive
71	bbc	DRSC06958	20	inactive
72	bbc	DRSC22309	7	inactive
73	Nox	DRSC06596	9	inactive
74	Nox	DRSC06857	5	inactive
75	Nox	DRSC27816	5	inactive
76	Nox	DRSC29856	8	inactive
77	CG14402	DRSC02386	4	inactive
78	Parp1	DRSC07725	7	inactive
79	Parp1	DRSC07778	7	inactive
80	Parp1	DRSC07780	21	inactive
81	CG7985	DRSC14128	10	inactive
82	ens	DRSC08454	4	inactive
83	ens	DRSC25507	5	inactive
84	EcR	DRSC04906	7	inactive
85	EcR	DRSC04910	7	inactive
86	EcR	DRSC39130	17	inactive
87	CG14641	DRSC12227	5	inactive
88	CG14641	DRSC26839	2	inactive
89	CG42812 + CG42811	DRSC15367	12	inactive
90	CG42812 + CG42811	DRSC15368	8	inactive
91	Spn42De	DRSC05011	4	inactive
92	Spn42De	DRSC28039	6	inactive
93	CG31793	DRSC02605	5	inactive
94	CG31793	DRSC24308	5	inactive
95	mRpL28	DRSC02724	4	inactive
96	Non1	DRSC05954	14	inactive
97	CG9928	DRSC03274	8	inactive
98	CG14439	DRSC17931	12	inactive
99	CG7094	DRSC03005	3	inactive
100	CG7094	DRSC29956	7	inactive
101	mim	DRSC23045	8	inactive
102	mim	DRSC27684	2	inactive
103	Syx13	DRSC09836		inactive
104	Nmdar1	DRSC12071	3	inactive
105	Nmdar1	DRSC12356	2	inactive
106	Nmdar1	DRSC24657	4	inactive
107	CG14613	DRSC20625	3	inactive
108	CG14613	DRSC27260	3	inactive
109	Sdhaf3	DRSC15020	8	inactive
110	bves	DRSC20520	6	inactive
111	bves	DRSC20555	7	inactive
